Laboratory results reported in PubChem BioAssay AID504327 (National Center for Advancing Translational Sciences (NCATS), 2011).
About 820 (0.21%) of roughly 390,000 compounds were called active. The shares of active, inactive and inconclusive entries below differ from those in the screen. Calls follow the shape of the dose curve; as a rule, active = well fitted inhibition curve with a large enough effect; inconclusive = small, poorly fitted or top-dose-only effect, or another doubt; inactive = no such curve, though single readings can be large or run the other way. A potency beside an inconclusive call is a rough fit, not a confirmed value.

Chains of the proteins cited; added tags and fusions are not shown.
UniProt Q92830, whole entry, looked up: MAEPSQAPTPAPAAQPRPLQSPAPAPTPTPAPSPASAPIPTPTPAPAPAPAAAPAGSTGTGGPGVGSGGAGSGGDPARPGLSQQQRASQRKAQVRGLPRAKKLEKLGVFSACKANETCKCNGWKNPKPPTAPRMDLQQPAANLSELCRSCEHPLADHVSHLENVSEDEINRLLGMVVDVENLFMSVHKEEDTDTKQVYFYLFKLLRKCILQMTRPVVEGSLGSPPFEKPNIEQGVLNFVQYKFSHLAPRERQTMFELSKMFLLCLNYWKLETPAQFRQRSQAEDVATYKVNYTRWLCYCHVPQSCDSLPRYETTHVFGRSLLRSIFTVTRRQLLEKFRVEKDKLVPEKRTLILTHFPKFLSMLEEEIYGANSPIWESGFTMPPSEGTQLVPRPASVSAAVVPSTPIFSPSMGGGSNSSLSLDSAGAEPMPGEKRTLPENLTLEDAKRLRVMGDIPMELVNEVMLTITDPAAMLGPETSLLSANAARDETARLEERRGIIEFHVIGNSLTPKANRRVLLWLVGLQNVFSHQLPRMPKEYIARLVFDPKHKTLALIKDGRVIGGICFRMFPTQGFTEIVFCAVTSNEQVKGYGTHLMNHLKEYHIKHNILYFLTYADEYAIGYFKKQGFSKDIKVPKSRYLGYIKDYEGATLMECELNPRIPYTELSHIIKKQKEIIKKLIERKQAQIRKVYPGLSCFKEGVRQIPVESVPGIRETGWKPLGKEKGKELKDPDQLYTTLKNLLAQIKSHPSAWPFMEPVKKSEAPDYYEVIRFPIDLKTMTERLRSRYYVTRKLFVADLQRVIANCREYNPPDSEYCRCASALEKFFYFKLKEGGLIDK

Target: Histone acetyltransferase KAT2A (Homo sapiens) (UniProt Q92830)
Experiment: qHTS Assay for Inhibitors of GCN5L2
Conditions: GCN5L2 HAT assay, ThioGlo1 CoA-SH fluorescence; activity change, negative = inhibition: at 58.9 µM (top of the series) unless noted
Method in brief: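 Compounds, pin-transferred from DMSO stocks, meet 20nM GCN5L2 for 15 min before the reaction begins with H3(1-25) peptide (75uM) and acetyl-CoA (70uM). Thiol-reactive ThioGlo1 reports CoA release over 20 min at room temperature.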
% is scaled to controls: 0 for no effect and ±100 for the full control effect; potency is read from the fitted curve at half-maximal effect.

| SMILES | activity change, negative = inhibition | Potency |
| --- | --- | --- |
| Cc1ccc(C(=O)CSc2nnc(-c3cccs3)n2C)o1 | inactive: -5.04% | – |
| CCN1C/C(=C/c2ccc(OC)c(O)c2)C(=O)/C(=C/c2ccc(OC)c(O)c2)C1 | inactive: 1.52% | – |
| Cc1nc2sccn2c(=O)c1S(=O)(=O)N1CCN(c2cccc(Cl)c2)CC1 | – | inconclusive: 3.55 µM [inhibitor, partial curve] |
| Cc1cc2c(cc1S(=O)(=O)CCC(=O)N(C)C1CCCCC1)OCC(=O)N2 | – | inconclusive: 6.31 µM [inhibitor, single point] |
| COc1ccccc1C(=O)Nc1sc2c(c1C#N)CCC2 | – | inconclusive: 0.708 µM [inhibitor, full curve, poor fit] |
| CC(=O)Nc1ccc(C(=O)N(C2=NC(C)CS2)c2ccc(Cl)cc2)cc1 (configuration not stated) | – | inconclusive: 0.794 µM [inhibitor, single point] |
| CN1C[C@@H]2C[C@H]1CN2c1cc2c(cc1F)c(=O)c(C(=O)O)cn2C1CC1 | – | inconclusive: 31.6 µM [inhibitor, partial curve] |
| CC[C@]12c3[nH]c4ccc(OC)cc4c3CCN1C(=O)C(CC(=O)NCc1ccc(OC)c(OC)c1)C[C@@H]2C(=O)N1CCN(C(=O)C2CC2)CC1 (some centres not stated) | inactive: -0.472% | – |
| O=S(=O)(Nc1ccc(-c2ccc3nncn3n2)cc1)c1ccccc1F | – | inconclusive: 0.794 µM [inhibitor, full curve, poor fit] |
| CC1CCN(C(=O)CCS(=O)(=O)c2cc3c(cc2Cl)NC(=O)CO3)CC1 | – | inconclusive: 0.141 µM [inhibitor, full curve, poor fit] |
| O=C(COc1ccc2c3c(c(=O)oc2c1)CCC3)Nc1ccccn1 | – | inconclusive: 39.8 µM [inhibitor, single point] |
| CCC(C)NS(=O)(=O)c1ccc(OCC(=O)Nc2ccc3c(c2)OCCO3)cc1 (configuration not stated) | – | inconclusive: 0.891 µM [inhibitor, partial curve] |
| CNC(=S)N/N=C(\C)c1ccc2c(c1)OCO2 | inactive: -2.21% | – |
| OCCC1CN(Cc2nc(-c3ccccc3)cs2)CCN1C1CCCC1 (configuration not stated) | – | inconclusive: 8.91 µM [inhibitor, single point] |
| CC1CCCCC1NC(=O)c1nn(C)c(=O)c2ccccc12 (configuration not stated) | inactive: 1.71% | – |
| O=C(O)c1cccc(N2C(=O)c3cc([N+](=O)[O-])cc4cc([N+](=O)[O-])cc(c34)C2=O)c1 | – | inconclusive: 35.5 µM [inhibitor, single point] |
| O=[N+]([O-])c1ccc(N2CCc3ccccc3C2)cc1 | inactive: -14.9% | – |
| COc1ccc(C(=O)Nc2ccc(Nc3ccccc3)cc2)cc1OC | – | inconclusive: 0.562 µM [inhibitor, partial curve, poor fit] |
| COCCCNc1nc2c(c(=O)n(Cc3ccccc3)c(=O)n2C)n1C | inactive: -5.2% | – |
| O=c1c2c(-c3ccc(Cl)cc3)csc2ncn1/N=C/c1cccc([N+](=O)[O-])c1O | – | inconclusive: 35.5 µM [inhibitor, single point] |
| CN(CCOc1ccccc1)C(=O)c1cc(-c2ccco2)nc2ccccc12 | – | inconclusive: 25.1 µM [inhibitor, partial curve] |

| SMILES | activity change, negative = inhibition | Potency |
| --- | --- | --- |
| CC1Cc2ccccc2N1CC(=O)NC(=O)NCc1ccco1 (configuration not stated) | – | inconclusive: 28.2 µM [inhibitor, partial curve] |
| COc1ccc(/C=C2\CCn3c2nc2cc(C(=O)O)ccc2c3=O)cc1O | inactive: 14.3% | – |
| COc1ccc(N2CC(C(=O)Nc3nc4ccc(F)cc4s3)CC2=O)c(OC)c1 (configuration not stated) | – | inconclusive: 31.6 µM [inhibitor, single point] |
| CSc1ncc(C(=O)NCc2ccc(F)cc2)c(-c2ccccc2)n1 | inactive: -10.8% | – |
| Cc1cc(SCc2c(F)cccc2Cl)nc(=O)[nH]1 | – | inconclusive: 6.31 µM [inhibitor, single point] |
| Cc1ccc([C@@H]2CC=C(C(=O)O)[C@H](c3cccc(Cl)c3)N2S(=O)(=O)c2ccccc2C)cc1 | – | inconclusive: 39.8 µM [inhibitor, single point] |
| S=c1[nH]nc(Cc2sc(-c3ccccc3)nc2-c2ccccc2)o1 | inactive: -0.872% | – |
| CCc1ccc(N(C(=O)CNC(=O)c2cccs2)C(C(=O)NC(C)(C)C)c2cc(OC)c(OC)c(OC)c2)cc1 (configuration not stated) | – | inconclusive: 7.08 µM [inhibitor, single point] |
| S=c1[nH]nc(-c2cccnc2)n1/N=C/C=C/c1ccco1 | – | inconclusive: 25.1 µM [inhibitor, single point] |
| COc1ccc(CCC(=O)O)c(O)c1 | – | inconclusive: 12.6 µM [inhibitor, partial curve, poor fit] |
| CCOc1ccc(C(C(=O)NCC2CCCO2)N(Cc2cccs2)C(=O)c2snc(C(N)=O)c2N)cc1 (configuration not stated) | inactive: -5.19% | – |
| O=C1OCCN1C(=O)[C@H]1[C@H](c2ccc(F)cc2)C(c2cccc(Cl)c2)=NN1c1ccccc1 | – | inconclusive: 39.8 µM [inhibitor, single point] |
| COc1ccc(CCN=C(N)NS(=O)(=O)c2ccc(C)c(C)c2)cc1OC | – | inconclusive: 39.8 µM [inhibitor, single point] |
| CCn1nc(C)c(CNC(=O)c2cc(COc3ccccc3SC)on2)c1C | inactive: -4.08% | – |
| COc1ccccc1NC(=O)CCc1nc2sc3c(c2c(=O)[nH]1)CCCC3 | – | inconclusive: 20 µM [inhibitor, partial curve] |
| O=C(O)c1[nH]c2ccccc2c1C(c1c(F)cccc1Cl)c1c(C(=O)O)[nH]c2ccccc12 | inactive: -1.42% | – |
| COc1ccc(/C=C(\NC(=O)c2ccc(C)cc2)C(=O)Nc2c(C)n(C)n(-c3ccccc3)c2=O)cc1 | inactive: -8.48% | – |
| CC(C)NC(=O)C1CCCN(S(=O)(=O)c2cccs2)C1 (configuration not stated) | – | inconclusive: 0.794 µM [inhibitor, single point] |
| c1ccc(Nc2nc(-c3ccoc3)nc3ccccc23)cc1 | – | inconclusive: 22.4 µM [inhibitor, single point] |
| Oc1ccc2ccccc2c1SSc1c(O)ccc2ccccc12 | – | inconclusive: 25.1 µM [inhibitor, single point] |
| CCc1ccc(S(=O)(=O)/N=C2\C=C(NS(=O)(=O)c3ccccc3)C(=O)c3ccccc32)cc1 | – | inconclusive: 35.5 µM [inhibitor, single point] |

Sorted by count of non-hydrogen atoms (high to low): 9 of the compounds above

| SMILES | activity change, negative = inhibition | Potency |
| --- | --- | --- |
| CCOc1ccc(C(C(=O)NCC2CCCO2)N(Cc2cccs2)C(=O)c2snc(C(N)=O)c2N)cc1 (configuration not stated) | inactive: -5.19% | – |
| CCc1ccc(S(=O)(=O)/N=C2\C=C(NS(=O)(=O)c3ccccc3)C(=O)c3ccccc32)cc1 | – | inconclusive: 35.5 µM [inhibitor, single point] |
| CCN1C/C(=C/c2ccc(OC)c(O)c2)C(=O)/C(=C/c2ccc(OC)c(O)c2)C1 | inactive: 1.52% | – |
| CCn1nc(C)c(CNC(=O)c2cc(COc3ccccc3SC)on2)c1C | inactive: -4.08% | – |
| COc1ccc(CCN=C(N)NS(=O)(=O)c2ccc(C)c(C)c2)cc1OC | – | inconclusive: 39.8 µM [inhibitor, single point] |
| O=S(=O)(Nc1ccc(-c2ccc3nncn3n2)cc1)c1ccccc1F | – | inconclusive: 0.794 µM [inhibitor, full curve, poor fit] |
| Oc1ccc2ccccc2c1SSc1c(O)ccc2ccccc12 | – | inconclusive: 25.1 µM [inhibitor, single point] |
| S=c1[nH]nc(-c2cccnc2)n1/N=C/C=C/c1ccco1 | – | inconclusive: 25.1 µM [inhibitor, single point] |
| Cc1cc(SCc2c(F)cccc2Cl)nc(=O)[nH]1 | – | inconclusive: 6.31 µM [inhibitor, single point] |
